Reference: publication PMC8384837
Substitutions are numbered along the chain they refer to. The list shows a part of the results. For some of these results: At the low end of the ranking the order means little.

Tests used:
Conditions in all cases: yeast three-hybrid, YBZ-1, SC-Leu-His + 0.5 mM 3-AT, 4 days
[1] = target: T1, PUM1 PUF domain R6-GLR N1043G + Y1044L + Q1047R (Homo sapiens) (UniProt Q14671)
T1 sequence: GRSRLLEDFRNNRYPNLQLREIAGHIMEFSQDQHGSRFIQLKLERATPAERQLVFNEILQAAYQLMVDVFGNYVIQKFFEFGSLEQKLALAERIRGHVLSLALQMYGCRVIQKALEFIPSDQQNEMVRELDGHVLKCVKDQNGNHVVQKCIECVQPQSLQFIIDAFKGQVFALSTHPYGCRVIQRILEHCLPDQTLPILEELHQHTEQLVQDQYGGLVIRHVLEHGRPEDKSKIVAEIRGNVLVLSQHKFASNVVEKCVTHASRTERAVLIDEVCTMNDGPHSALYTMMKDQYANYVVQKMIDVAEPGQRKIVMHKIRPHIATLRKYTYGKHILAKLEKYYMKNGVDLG

[2] = target: T2, PUM1 PUF domain R6-GWE N1043G + Y1044W + Q1047E (Homo sapiens) (UniProt Q14671)
T2 sequence: T1 sequence with L217W, R220E

[3] = target: T3, PUM1 PUF domain R6-LFG N1043L + Y1044F + Q1047G (Homo sapiens) (UniProt Q14671)
T3 sequence: T1 sequence with G216L, L217F, R220G

[4] = target: T4, PUM1 PUF domain R6-GFG N1043G + Y1044F + Q1047G (UniProt Q14671)
T4 sequence: T1 sequence with L217F, R220G

[5] = target: T5, PUM1 PUF domain R6-GFS N1043G + Y1044F + Q1047S (UniProt Q14671)
T5 sequence: T1 sequence with L217F, R220S

[6] = target: T6, PUM1 PUF domain R6-GRQ N1043G + Y1044R (UniProt Q14671)
T6 sequence: T1 sequence with L217R, R220Q

[7] = target: T7, PUM1 PUF domain R6-GWC N1043G + Y1044W + Q1047C (UniProt Q14671)
T7 sequence: T1 sequence with L217W, R220C

[8] = target: T8, PUM1 PUF domain R6-GWI N1043G + Y1044W + Q1047I (UniProt Q14671)
T8 sequence: T1 sequence with L217W, R220I

[9] = target: T9, PUM1 PUF domain R6-GWM N1043G + Y1044W + Q1047M (UniProt Q14671)
T9 sequence: T1 sequence with L217W, R220M

[10] = target: T10, PUM1 PUF domain R6-GWR N1043G + Y1044W + Q1047R (Homo sapiens) (UniProt Q14671)
T10 sequence: T1 sequence with L217W

[11] = target: T11, PUM1 PUF domain R6-GYK N1043G + Q1047K (UniProt Q14671)
T11 sequence: T1 sequence with L217Y, R220K

[12] = target: T12, PUM1 PUF domain R6-HFR N1043H + Y1044F + Q1047R (UniProt Q14671)
T12 sequence: T1 sequence with G216H, L217F

[13] = target: T13, PUM1 PUF domain R6-IYL N1043I + Q1047L (UniProt Q14671)
T13 sequence: T1 sequence with G216I, L217Y, R220L

[14] = target: T14, PUM1 PUF domain R6-IYS N1043I + Q1047S (UniProt Q14671)
T14 sequence: T1 sequence with G216I, L217Y, R220S

[15] = target: T15, PUM1 PUF domain R6-LFS N1043L + Y1044F + Q1047S (UniProt Q14671)
T15 sequence: T1 sequence with G216L, L217F, R220S

[16] = target: T16, PUM1 PUF domain R6-LFV N1043L + Y1044F + Q1047V (UniProt Q14671)
T16 sequence: T1 sequence with G216L, L217F, R220V

[17] = target: T17, PUM1 PUF domain R6-LHS N1043L + Y1044H + Q1047S (UniProt Q14671)
T17 sequence: T1 sequence with G216L, L217H, R220S

[18] = target: T18, PUM1 PUF domain R6-LWL N1043L + Y1044W + Q1047L (UniProt Q14671)
T18 sequence: T1 sequence with G216L, L217W, R220L

[19] = target: T19, PUM1 PUF domain R6-GFK N1043G + Y1044F + Q1047K (UniProt Q14671)
T19 sequence: T1 sequence with L217F, R220K

[20] = target: T20, PUM1 PUF domain R6-LWR N1043L + Y1044W + Q1047R (Homo sapiens) (UniProt Q14671)
T20 sequence: T1 sequence with G216L, L217W

How did the binding signal (log2 enrichment (interaction score)) [1] turn out when “GGCUAGAACUAGUGGAUCCCCCGGCGCCCGGCGGCUCGAGCCCGGGUAAGUGUAAAUAGUCUGCAUGCCGCCGGGCGCCAUGCCUGCAGGUCGACUCUAGAAAACAUG” was run?
Its binding signal (log2 enrichment (interaction score)) is -5.04.

And the binding signal (log2 enrichment (interaction score)) [2]?
Its binding signal (log2 enrichment (interaction score)) is -4.47.

What about the binding signal (log2 enrichment (interaction score)) [3] of the same sequence?
The binding signal (log2 enrichment (interaction score)) was 0.63.

Which results are given for “GGCUAGAACUAGUGGAUCCCCCGGCGCCCGGCGGCUCGAGCCCGGGUAAGUGGAAAUAGUCUGCAUGCCGCCGGGCGCCAUGCCUGCAGGUCGACUCUAGAAAACAUG”?
binding signal (log2 enrichment (interaction score)) [4]: -8.15; binding signal (log2 enrichment (interaction score)) [5]: < -8.51; binding signal (log2 enrichment (interaction score)) [6]: -6.74; binding signal (log2 enrichment (interaction score)) [7]: < -8.53; binding signal (log2 enrichment (interaction score)) [8]: < -8.21; binding signal (log2 enrichment (interaction score)) [9]: < -9.13; binding signal (log2 enrichment (interaction score)) [10]: -1.13; binding signal (log2 enrichment (interaction score)) [11]: < -7.38; binding signal (log2 enrichment (interaction score)) [12]: -5.59; binding signal (log2 enrichment (interaction score)) [13]: < -6.9; binding signal (log2 enrichment (interaction score)) [14]: -6.79; binding signal (log2 enrichment (interaction score)) [15]: < -6.62; binding signal (log2 enrichment (interaction score)) [16]: < -8.49; binding signal (log2 enrichment (interaction score)) [17]: < -7.3; binding signal (log2 enrichment (interaction score)) [18]: < -8.87

“GGCUAGAACUAGUGGAUCCCCCGGCGCCCGGCGGCUCGAGCCCGGGUAAGUGAAAAUAGUCUGCAUGCCGCCGGGCGCCAUGCCUGCAGGUCGACUCUAGAAAACAUG” was tested. Which binding signal (log2 enrichment (interaction score)) [19] did it give?
Its binding signal (log2 enrichment (interaction score)) is -5.78.

What about the binding signal (log2 enrichment (interaction score)) [1] of the same sequence?
The binding signal (log2 enrichment (interaction score)) was -6.05.

What about the binding signal (log2 enrichment (interaction score)) [2] of the same sequence?
Its binding signal (log2 enrichment (interaction score)) is -0.53.

And the binding signal (log2 enrichment (interaction score)) [10]?
Its binding signal (log2 enrichment (interaction score)) is -1.72.

And the binding signal (log2 enrichment (interaction score)) [12]?
Its binding signal (log2 enrichment (interaction score)) is -3.99.

And the binding signal (log2 enrichment (interaction score)) [20]?
The binding signal (log2 enrichment (interaction score)) was -3.8.

“GGCUAGAACUAGUGGAUCCCCCGGCGCCCGGCGGCUCGAGCCCGGGUAAGUGCAAAUAGUCUGCAUGCCGCCGGGCGCCAUGCCUGCAGGUCGACUCUAGAAAACAUG” was tested. Which binding signal (log2 enrichment (interaction score)) [4] did it give?
The binding signal (log2 enrichment (interaction score)) was -5.96.

What about the binding signal (log2 enrichment (interaction score)) [19] of the same sequence?
The binding signal (log2 enrichment (interaction score)) was less than -7.12.

What about the binding signal (log2 enrichment (interaction score)) [5] of the same sequence?
Its binding signal (log2 enrichment (interaction score)) is -5.71.

And the binding signal (log2 enrichment (interaction score)) [6]?
Its binding signal (log2 enrichment (interaction score)) is less than -7.68.

And the binding signal (log2 enrichment (interaction score)) [7]?
Its binding signal (log2 enrichment (interaction score)) is less than -7.38.

And the binding signal (log2 enrichment (interaction score)) [8]?
The binding signal (log2 enrichment (interaction score)) was less than -6.14.

And the binding signal (log2 enrichment (interaction score)) [9]?
The binding signal (log2 enrichment (interaction score)) was less than -7.79.

And the binding signal (log2 enrichment (interaction score)) [11]?
Its binding signal (log2 enrichment (interaction score)) is less than -6.63.

And the binding signal (log2 enrichment (interaction score)) [13]?
The binding signal (log2 enrichment (interaction score)) was less than -7.92.

And the binding signal (log2 enrichment (interaction score)) [14]?
The binding signal (log2 enrichment (interaction score)) was less than -7.51.

And the binding signal (log2 enrichment (interaction score)) [3]?
Its binding signal (log2 enrichment (interaction score)) is -2.22.

And the binding signal (log2 enrichment (interaction score)) [15]?
Its binding signal (log2 enrichment (interaction score)) is less than -8.6.

What about the binding signal (log2 enrichment (interaction score)) [16] of the same sequence?
The binding signal (log2 enrichment (interaction score)) was less than -8.3.

And the binding signal (log2 enrichment (interaction score)) [17]?
Its binding signal (log2 enrichment (interaction score)) is less than -7.63.

What about the binding signal (log2 enrichment (interaction score)) [18] of the same sequence?
The binding signal (log2 enrichment (interaction score)) was less than -6.95.

And the binding signal (log2 enrichment (interaction score)) [20]?
The binding signal (log2 enrichment (interaction score)) was -3.31.
